Laboratory results published in patent WO2012172495A1 (dated 2012).
Results are given in words; binding and its absence hold for the method and conditions named. Some binding calls cover weakened binding; strength is not graded here.

Amino acid sequences for entries named in this document (tags omitted). A change or cut given only in a name is not applied to a line headed by its entry. Residues count along the entry.
UniProt Q9CZ52, residues 31-319: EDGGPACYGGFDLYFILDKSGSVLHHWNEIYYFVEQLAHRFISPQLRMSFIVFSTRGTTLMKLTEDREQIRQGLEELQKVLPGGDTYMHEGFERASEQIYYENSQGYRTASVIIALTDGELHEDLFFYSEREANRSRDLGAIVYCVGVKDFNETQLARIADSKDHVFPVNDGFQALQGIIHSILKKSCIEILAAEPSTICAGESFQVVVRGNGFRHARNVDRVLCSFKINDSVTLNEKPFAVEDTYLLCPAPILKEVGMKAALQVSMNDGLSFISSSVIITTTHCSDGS
UniProt Q9H6X2: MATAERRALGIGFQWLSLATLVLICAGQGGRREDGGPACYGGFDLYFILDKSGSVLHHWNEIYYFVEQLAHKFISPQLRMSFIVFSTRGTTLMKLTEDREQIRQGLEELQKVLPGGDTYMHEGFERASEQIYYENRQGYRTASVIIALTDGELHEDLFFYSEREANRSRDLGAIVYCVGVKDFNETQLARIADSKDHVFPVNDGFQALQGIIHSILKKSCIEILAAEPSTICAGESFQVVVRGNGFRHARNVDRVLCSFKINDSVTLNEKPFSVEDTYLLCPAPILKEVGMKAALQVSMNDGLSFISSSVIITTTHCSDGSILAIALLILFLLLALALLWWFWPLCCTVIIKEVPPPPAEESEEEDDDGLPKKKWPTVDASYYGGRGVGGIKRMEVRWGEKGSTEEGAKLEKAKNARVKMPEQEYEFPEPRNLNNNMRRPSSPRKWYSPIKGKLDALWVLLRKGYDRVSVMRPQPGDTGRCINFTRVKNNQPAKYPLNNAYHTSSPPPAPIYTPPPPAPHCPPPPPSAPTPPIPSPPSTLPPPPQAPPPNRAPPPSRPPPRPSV

Legend:
mouse TEM8 (mouse) [1] = molecular target: mouse TEM8 (mouse) (UniProt Q9CZ52); test: Figure 1 legend: ELISA; mouse TEM8 format not described
mouse TEM8 (mouse) [2] = molecular target: mouse TEM8 (mouse) (UniProt Q9CZ52); test: ELISA, Fab; mouse TEM8 format not described
[3] = molecular target: purified recombinant hTEM8(ED)-Fc fusion protein, biotinylated (human) (UniProt Q9H6X2); test: ELISA, Fab on biotinylated human TEM8-Fc
[4] = molecular target: human TEM8 on transfected HEK-293 cells (293/Flag-hTEM8) (human) (UniProt Q9H6X2); test: immunofluorescence microscopy, 10 ug/ml Fab on HEK-293 cells transfected with human TEM8, against untransfected HEK-293
[5] = molecular target: purified recombinant hTEM8(ED)-Fc fusion protein, biotinylated (human) (UniProt Q9H6X2); test: Figure 1 legend: ELISA on hTEM8(ED)-Fc

Measured: binding

B1: L5 Fab fragment (Anti-human TEM8_cl4) (Fab, V domains shown)
VH: QVQLVESGGGLVQPGGSLRLSCAASGFTFNSYGLSWVRQAPGKGLEWVSNISSNGSYTYYADSVKGRFTISRDNSKNTLYLQMNSLRAEDTAVYYCARAGYGLFDVWGQGTLVTVSS
VL: DIELTQPPSVSVAPGQTARISCSGDKLREYYVHWYQQKPGQAPVLVIYGDNKRPSGIPERFSGSNSGNTATLTISGTQAEDEADYYCSSWAGSRSGTVFGGGTKLTVL
notes: Tested as a purified Fab fragment; The light chain is lambda
binds: mouse TEM8 (mouse) [1] | mouse TEM8 (mouse) [2]

B2: L1 Fab fragment (anti-human TEM8) (Fab, V domains shown)
VH: QVQLVESGGGLVQPGGSLRLSCAASGFTFNSYAMSWVRQAPGKGLEWVSLISSGSSTYYADSVKGRFTISRDNSKNTLYLQMNSLRAEDTAVYYCARAGFKFDNWGQGTLVTVSS
VL: DIELTQPPSVSVAPGQTARISCSGDSIPNYSVSWYQQKPGQAPVLVIYADSNRPSGIPERFSGSNSGNTATLTISGTQAEDEADYYCQSYDNTSPDLVFGGGTKLTVLG
binds: all assays above
